These are yes or no findings as the source states them, for the method shown. Binding seen in cells or lysates may run through a third protein. These calls come from enrichment with a bait or labelling near it, and not all partners need be listed. Tags and fused reporters may be left off the sequences shown.
Molecular target: T1, calmodulin-streptavidin-tagged FOXL2 (human) (UniProt P58012)
T1 sequence: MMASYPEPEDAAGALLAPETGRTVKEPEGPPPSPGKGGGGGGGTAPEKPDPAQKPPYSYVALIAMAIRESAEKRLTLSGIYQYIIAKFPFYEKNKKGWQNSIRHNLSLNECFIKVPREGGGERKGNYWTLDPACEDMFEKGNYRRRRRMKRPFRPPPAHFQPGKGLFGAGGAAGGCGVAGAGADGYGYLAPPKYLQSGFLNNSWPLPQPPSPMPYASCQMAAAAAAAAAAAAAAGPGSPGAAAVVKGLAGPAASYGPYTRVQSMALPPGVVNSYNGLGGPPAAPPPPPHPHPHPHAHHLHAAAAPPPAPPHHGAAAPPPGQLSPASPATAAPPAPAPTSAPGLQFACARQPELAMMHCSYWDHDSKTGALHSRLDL
Assay: affinity purification with mass spectrometry; tandem affinity purification (streptavidin and calmodulin) of nuclear proteins of 293T cells transfected with FOXL2-NTAP plasmid or empty vector; gel bands analysed by LC-MS/MS

Sequences of proteins named here, by UniProt entry; tags and fusion partners are left off.
UniProt P13010: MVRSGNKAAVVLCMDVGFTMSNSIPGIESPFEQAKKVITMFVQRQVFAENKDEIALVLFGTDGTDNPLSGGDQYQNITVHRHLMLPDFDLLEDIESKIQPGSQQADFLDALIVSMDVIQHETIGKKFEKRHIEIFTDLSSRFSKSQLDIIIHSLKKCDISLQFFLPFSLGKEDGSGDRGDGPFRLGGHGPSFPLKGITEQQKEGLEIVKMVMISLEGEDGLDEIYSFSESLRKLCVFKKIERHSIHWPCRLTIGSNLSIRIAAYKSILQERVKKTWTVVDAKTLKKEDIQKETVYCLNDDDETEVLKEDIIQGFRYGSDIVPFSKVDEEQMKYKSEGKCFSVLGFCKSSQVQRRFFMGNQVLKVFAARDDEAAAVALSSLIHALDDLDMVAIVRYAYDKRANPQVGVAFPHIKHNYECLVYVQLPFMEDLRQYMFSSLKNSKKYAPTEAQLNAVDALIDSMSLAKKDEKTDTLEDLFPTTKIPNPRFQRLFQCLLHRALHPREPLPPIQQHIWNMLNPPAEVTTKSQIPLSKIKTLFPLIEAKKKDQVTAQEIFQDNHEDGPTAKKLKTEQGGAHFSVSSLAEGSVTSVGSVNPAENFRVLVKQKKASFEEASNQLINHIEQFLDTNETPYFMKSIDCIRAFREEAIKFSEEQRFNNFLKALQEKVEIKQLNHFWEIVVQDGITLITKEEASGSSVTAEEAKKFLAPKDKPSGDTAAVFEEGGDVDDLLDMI

binding: binds
Substance: XRCC5 (Ku80), endogenous (from UniProt P13010 1-732)
